PMC9284800
Results are given in words; binding and its absence hold for the method and conditions named. In cells and extracts the contact can be indirect. Some binding calls cover weakened binding; strength is not graded here.

Chains of the proteins cited; added tags and fusions are not shown.
UniProt P17676: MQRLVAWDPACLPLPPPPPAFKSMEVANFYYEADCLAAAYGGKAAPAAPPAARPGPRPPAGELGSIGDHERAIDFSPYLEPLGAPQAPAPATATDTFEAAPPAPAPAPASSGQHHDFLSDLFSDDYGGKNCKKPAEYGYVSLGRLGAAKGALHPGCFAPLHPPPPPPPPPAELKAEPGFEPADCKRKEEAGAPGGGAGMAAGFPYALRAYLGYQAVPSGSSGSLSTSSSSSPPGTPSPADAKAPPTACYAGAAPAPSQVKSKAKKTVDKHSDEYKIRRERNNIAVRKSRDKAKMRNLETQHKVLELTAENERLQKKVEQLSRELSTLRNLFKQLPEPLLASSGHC
UniProt Q00987: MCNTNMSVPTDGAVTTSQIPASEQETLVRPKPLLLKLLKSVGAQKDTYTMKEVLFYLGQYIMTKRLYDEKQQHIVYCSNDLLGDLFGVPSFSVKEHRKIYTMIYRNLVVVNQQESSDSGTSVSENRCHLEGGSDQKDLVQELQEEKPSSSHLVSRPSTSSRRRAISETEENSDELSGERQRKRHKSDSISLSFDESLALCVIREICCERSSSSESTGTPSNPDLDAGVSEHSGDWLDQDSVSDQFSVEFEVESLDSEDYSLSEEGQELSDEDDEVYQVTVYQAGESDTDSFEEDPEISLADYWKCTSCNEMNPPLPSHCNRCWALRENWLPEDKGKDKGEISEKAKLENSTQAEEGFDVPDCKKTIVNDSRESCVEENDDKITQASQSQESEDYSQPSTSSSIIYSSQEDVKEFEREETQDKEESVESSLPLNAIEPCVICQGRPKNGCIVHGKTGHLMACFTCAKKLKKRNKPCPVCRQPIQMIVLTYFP

Molecular target: CCAAT/enhancer binding protein (C/EBP), beta (human (endogenous in GSC267)) (UniProt P17676)
Test: co-IP; lysates of GSC267 cells transfected with PDIA3P1 or shPDIA3P1; antibody coupled to protein A/G magnetic beads (Pierce Classic Magnetic IP/Co-IP Kit), western blot; which antibody precipitated is not told

Substance: mouse double minute 2 homolog (MDM2) (from UniProt Q00987 1-491)
- binding: binds
